## Primary screen of a compound library

Mtb glucose medium: 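Phenotypic screen: M. tuberculosis growth, glucose 7H9 medium, 3 days; the read-out is not stated. Compounds at 50 µM. The record gives no direction; compounds that gave an IC50 in retests scored well above the rest, so higher reads as more growth inhibition. About 69,000 compounds were tested under these conditions; 1.1% (about 760) showed 50% or more at least once.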
Mtb cholesterol medium: 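Growth of Mycobacterium tuberculosis over 4 days (cholesterol / DPPC medium with tyloxapol); the read-out is not stated. Compounds at 50 µM. The record gives no direction; compounds that gave an IC50 in retests scored well above the rest, so higher reads as more growth inhibition. Size under these conditions: about 69,000 compounds, about 370 of them at 50% or above in at least one test.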

Results are given as percent effect.
The record does not define 0% and 100%; most values in the screen are far below 50% and negative numbers occur (in some assays of this library far below -100).
Compounds were drawn at random from those tested, without regard to their results.
Two or more numbers in one place are separate tests of the same structure; such repeats can differ widely.

O=C(NCCc1ccccc1)NCC(O)c1cccs1 (centres unmarked) gave Mtb glucose medium: 14.54%; Mtb cholesterol medium: 6.144%. O=C(O)C(F)(F)F.c1cc(C2CC2)n2cnc(C3CN(Cc4nccs4)CCO3)c2c1 (centres unmarked) read Mtb glucose medium: 9.045% and -7.342%; Mtb cholesterol medium: -4.154%. For CCCc1cnc(C)nc1NC(C)Cc1cnccn1 (centres unmarked) the result was Mtb glucose medium: -7.558% and -4.957%; Mtb cholesterol medium: -17.17%. Cn1[nH]c(C2CCC2)c(-c2ccc3c(c2)OCO3)c1=N gave Mtb glucose medium: 13.97%; Mtb cholesterol medium: 15.86%. For Cc1cc(CN(C)C(=O)NCC(C)N2CCc3ccccc32)no1 (centres unmarked) the result was Mtb glucose medium: 7.395%; Mtb cholesterol medium: -1.397%. For CNc1cc(C)nc(C2CCN(CCO)CC2)n1 the result was Mtb glucose medium: -2.494%; Mtb cholesterol medium: -8.907%. For CN(c1cccc(C#N)c1)S(=O)(=O)c1cc(C(=O)O)ccc1Cl the result was Mtb glucose medium: -1.502% and -1.171%; Mtb cholesterol medium: 7.737% and -4.018%.

With COc1cccc(CC(=O)N2CCCC(c3nncn3C)C2)c1 (centres unmarked) the screen gave Mtb glucose medium: 9.255%; Mtb cholesterol medium: -28.86%. For C1CC(NCC2CC2)CN(Cc2noc(C3CC3)n2)C1 (centres unmarked) the result was Mtb glucose medium: -1.43% and -11.96%; Mtb cholesterol medium: 6.42%. Result for C=C(C)COc1cccc(CN(CC)Cc2noc(C)n2)c1 was Mtb glucose medium: 24.85%; Mtb cholesterol medium: 26.56%. CN(CC1CN(Cc2cn3ccsc3n2)CCO1)c1cccnn1 (centres unmarked) gave Mtb glucose medium: 1.782%; Mtb cholesterol medium: 1.303%. Result for O=C(O)C(F)(F)F.[H][C@@]12CN(C(=O)c3ccn(C)n3)C[C@]1([H])OCCN2c1ncccn1 was Mtb glucose medium: 0.0836%; Mtb cholesterol medium: 4.096%. For COc1c(CNCC(O)c2cccc(F)c2)c(C(C)C)nn1C (centres unmarked) the result was Mtb glucose medium: -27.46%; Mtb cholesterol medium: -16.76%. O=C(NCc1ccc(-n2cncn2)nc1)c1cc(Cl)ccn1 gave Mtb glucose medium: -23.09%; Mtb cholesterol medium: 4.075%.

With CCCS(=O)(=O)N[C@H]1CN(c2ncccc2C(N)=O)C[C@@H]1C(C)C the screen gave Mtb glucose medium: 3.962% and -5.809%; Mtb cholesterol medium: 5.78%. O=C(NCc1ccccc1)C1CN(c2ccccn2)CCO1 (centres unmarked) gave Mtb glucose medium: 15.57%; Mtb cholesterol medium: 6.513%. Result for [H][C@]12CC[C@]([H])(CN(Cc3snnc3C)C1)N(Cc1c(C)noc1C)C2=O was Mtb glucose medium: -7.682%; Mtb cholesterol medium: -14.5%. CCc1nnc(Nc2cccc(C3CCCN(CC(C)(C)C)C3)n2)s1 (centres unmarked) gave Mtb glucose medium: 14.56%; Mtb cholesterol medium: -0.1192%. Cc1ccc(N2CCN(CC3CC3)C3(CCN(C(C)C)CC3)C2=O)cn1.O=C(O)C(F)(F)F gave Mtb glucose medium: -11.4% and -2.315%; Mtb cholesterol medium: 12.66%. For Cc1noc(-c2ccc(N(C)Cc3cccnc3)nc2)n1 the result was Mtb glucose medium: -10.81% and 8.623%; Mtb cholesterol medium: 23.93%. Result for Cc1c(-c2c(-c3ccccc3)ncn2[C@H](CO)C(=O)O)cnn1C was Mtb glucose medium: -27.87%; Mtb cholesterol medium: -19.83%.

Result for Cc1ccccc1N1CCCN(C(=O)CCc2nncn2C)CC1 was Mtb glucose medium: -25.27%; Mtb cholesterol medium: -18.34%. With O=C(O)C(F)(F)F.[H][C@@]12OCCN(S(=O)(=O)N(C)C)[C@@]1([H])CC[C@H]2Oc1cccnc1 the screen gave Mtb glucose medium: 8.916%; Mtb cholesterol medium: 12.63%. With Cc1nn2cnnc2c(C)c1CCC(=O)Nc1nnc(C(C)C)s1 the screen gave Mtb glucose medium: -13.73% and -5.522%; Mtb cholesterol medium: -20.02%. COc1ccc(Cc2nnc(SC)o2)cc1OC gave Mtb glucose medium: 29.84%; Mtb cholesterol medium: 5.143%. CN(Cc1cnn(C)c1)CC1CCCN1c1cccnn1 (centres unmarked) read Mtb glucose medium: 0.7715%; Mtb cholesterol medium: 7.238%. With c1ccc(CN2CCN(c3ccc4nncn4n3)CC2)nc1 the screen gave Mtb glucose medium: 27.9%; Mtb cholesterol medium: -8.354%. Result for c1ccc(Cc2noc(CCNC3CCOC4(CCOCC4)C3)n2)cc1 (centres unmarked) was Mtb glucose medium: 18.19%; Mtb cholesterol medium: -24.42%.

With C1CN(c2nc3c(c(NC4CC4)n2)CN(CC2CCOC2)CC3)CCO1 (centres unmarked) the screen gave Mtb glucose medium: -5.07% and -2.798%; Mtb cholesterol medium: -14.72% and 6.143%. For COCC(=O)N1CCCC2(CCN(Cc3cccc(C)n3)C2=O)C1.O=C(O)C(F)(F)F (centres unmarked) the result was Mtb glucose medium: -5.832% and -11.56%; Mtb cholesterol medium: -20.14% and -13.67%. C1CC(CN2CCc3c(nnn3CC3CC3)C2COCC2CC2)C1.O=C(O)C(F)(F)F (centres unmarked) gave Mtb glucose medium: 30.43%; Mtb cholesterol medium: 15.29%. O=C(O)C(F)(F)F.O=C(c1ccco1)N1CCCC2(CCN(c3nncs3)C2)C1 (centres unmarked) gave Mtb glucose medium: 16.69%; Mtb cholesterol medium: -0.9313%. CCOCCC(=O)N1CCc2cccc(S(=O)(=O)N3CCOCC3)c2C1 read Mtb glucose medium: -47.65%; Mtb cholesterol medium: 13.9%.

Once more, the final 4:

With COCC(=O)N1CCCC2(CCN(Cc3cccc(C)n3)C2=O)C1.O=C(O)C(F)(F)F (centres unmarked) the screen gave Mtb glucose medium: -5.832% and -11.56%; Mtb cholesterol medium: -20.14% and -13.67%.
With C1CC(CN2CCc3c(nnn3CC3CC3)C2COCC2CC2)C1.O=C(O)C(F)(F)F (centres unmarked) the screen gave Mtb glucose medium: 30.43%; Mtb cholesterol medium: 15.29%.
With O=C(O)C(F)(F)F.O=C(c1ccco1)N1CCCC2(CCN(c3nncs3)C2)C1 (centres unmarked) the screen gave Mtb glucose medium: 16.69%; Mtb cholesterol medium: -0.9313%.
With CCOCCC(=O)N1CCc2cccc(S(=O)(=O)N3CCOCC3)c2C1 the screen gave Mtb glucose medium: -47.65%; Mtb cholesterol medium: 13.9%.

Source: ChEMBL document CHEMBL3988442, “University of Dundee, Small-Polar-MMV Screening Library” (2021).